Measured values published in patent US8940799B2, “Adjusting drug loading in polymeric materials” (Medtronic Xomed, Inc., priority 2010, dated 2015).

Details: shunt catheter of 50/50 blend of 57 and 44 durometer material, loaded from chloroform, steam sterilized

degradation by steam sterilization: about 10%
Compound: CCC[C@@H]1C[C@@H](C(=O)N[C@@H]([C@H]2O[C@H](SC)[C@H](O)[C@@H](O)[C@H]2O)[C@H](C)Cl)N(C)C1 [Clindamycin, clindamycin]
